Data reported in PubChem BioAssay AID2685 (National Center for Advancing Translational Sciences (NCATS), 2010).
Values joined by “and” are separate entries in the source; they are usually repeats but may differ in a detail not shown here. Equal values may be shown once. The list shows a part of the results. The main result of the screen is listed elsewhere. These columns were measured beside it and carry no call. The list favours compounds with an active or inconclusive main result. The note in brackets gives the kind of curve behind each potency; many fits are weak.

Test: qHTS Assay for Lipid Storage Modulators in Drosophila S3 Cells;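 as to cell number change: cells counted by Cell Tracker Red CMTPX staining in the red channel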
Conditions: BODIPY lipid droplet fluorescence, 18-24 h; for cell number change: measured here: cell count max response, cells fed with added oleic acid
In short: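 Drosophila S3 cells loaded with oleic acid (400 uM, as added) and compounds at several concentrations; lipid droplets imaged by 488-nm laser-scanning cytometry, 500–530 nm intensity and object ratio to cell channel. Percent activity normalized to 20 uM Triacsin C.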

[1] = measured here: cell number channel AC50, cells fed with added oleic acid
[2] = measured here: lipid fluorescence (Fed channel) AC50, cells fed with added oleic acid

Structure (SMILES) | cell number change | AC50 [1] | AC50 [2]
Cc1ccc(Nc2nc(-c3sc(C)nc3C)cs2)cc1 | -51.3% | 16.4 µM [falling, single point] | –
Nc1cc(=O)nc(SCC(=O)Nc2ccccc2)n1-c1ccccc1 | 28.5% | – | 14.6 µM [rising, partial curve, poor fit]
CCOC(=O)c1cc(-c2ccccc2)sc1NC(=O)C(C)Sc1nnc(C)s1 (configuration not stated) | – | – | 23.1 µM [falling, single point]
O=c1c2c(nc3nc(NCc4ccc(Cl)cc4)[nH]n13)CCC2 | -23.1% | – | –
Cc1cc(NC(=O)c2ccccc2)nc2c1c(=O)oc1ccccc12 | 16.7% | – | 0.0731 µM [rising, full curve, poor fit]
COc1ccc(CS(=O)(=O)c2nc(C)cc(C)c2S(C)(=O)=O)cc1 | 0.261% | – | 1.3 µM [falling, partial curve, poor fit]
COc1ccc(NC(=S)NCc2cccn2C)cc1 | 0.901% | – | –
CCCN1CCN(C(=O)c2ccccc2-c2nc3ccccc3s2)CC1 | 8.74% | – | 29.1 µM [rising, single point]
COc1ccc(/C=C2/Sc3ccc(C(=O)NCCN4CCCCCC4)cc3NC2=O)cc1 | -16.3% | – | 6.51 µM [rising, single point]
O=C(/C=C/c1ccccc1)NCCS(=O)(=O)N1CCN(c2ccccc2F)CC1 | 17.3% | – | –
CCCc1nc2nc(C)c(NS(=O)(=O)c3ccc(C4CCCCC4)cc3)c(=O)n2[nH]1 | 5.56% | – | 0.092 µM [rising, full curve, poor fit]
CCn1c(SCC(=O)N2CCc3ccccc32)nnc1-c1ccncc1 | -17.8% | – | 29.1 µM [falling, single point]
Cn1nnnc1Sc1ncnc2scc(-c3ccccc3Cl)c12 | -55.1% | 4.11 µM [falling, full curve] | 4.11 µM [falling, full curve]
O=C(COc1ccc(Cl)cc1)Nc1cc2c3c(c1)CC(=O)N3CCC2 | 29.6% | – | 0.13 µM [rising, full curve, poor fit]
Cc1cc(NCCN2CCCCC2)n2c(nc3ccccc32)c1C#N | 10.9% | – | 4.61 µM [falling, partial curve]
CCn1c(=N)n(CC(O)c2cccs2)c2ccccc21 (configuration not stated) | -11.6% | – | 0.13 µM [falling, full curve, poor fit]
Cc1cc(C)n2nc(-c3ccc(F)cc3)nc2n1 | -12.6% | – | 0.82 µM [falling, full curve, poor fit]
CNC(=S)/N=C(/Nc1ccccc1)c1ccccc1 | -12.2% | – | 0.82 µM [rising, partial curve, poor fit]
O=C(CSCC(=O)N1CCCCC1)Nc1nc(-c2ccccc2)c(-c2ccccc2)s1 | -54.2% | 13 µM [falling, partial curve] | 23.1 µM [falling, partial curve]
COc1ccccc1NC(=O)CN1CCN(c2ccccc2)CC1 | 17.8% | 0.00411 µM [falling, full curve, poor fit] | 1.64 µM [falling, partial curve]

A draw from above in order of molecular weight, ascending.
Structure (SMILES) | cell number change | AC50 [1] | AC50 [2]
CNC(=S)/N=C(/Nc1ccccc1)c1ccccc1 | -12.2% | – | 0.82 µM [rising, partial curve, poor fit]
Cc1cc(NC(=O)c2ccccc2)nc2c1c(=O)oc1ccccc12 | 16.7% | – | 0.0731 µM [rising, full curve, poor fit]
CCn1c(SCC(=O)N2CCc3ccccc32)nnc1-c1ccncc1 | -17.8% | – | 29.1 µM [falling, single point]

Continuation:

Structure (SMILES) | cell number change | AC50 [1] | AC50 [2]
CNC(=O)CSc1nnc(-c2cccs2)o1 | 15.9% | – | 2.31 µM [rising, partial curve, poor fit]
COCCCNc1nc2ccccc2nc1NS(=O)(=O)c1ccc(C)cc1C | 30.7% | 0.92 µM [rising, full curve, poor fit] | 1.3 µM [rising, full curve]
COc1ccc(OC)c(C(=O)c2ccc(C(=O)O)cc2)c1 | 81% | 13 µM [rising, partial curve, poor fit] | 1.84 µM [rising, partial curve, poor fit]
CCOC(=O)c1ccc(N2C(=O)CC(Nc3ccc(O)cc3)C2=O)cc1 (configuration not stated) | -40.7% | 8.2 µM [falling, partial curve] | 14.6 µM [falling, partial curve, poor fit]
Cc1ccc(/C=N/NC(=O)c2nnn(-c3nonc3N)c2CSc2ccccc2)o1 | 14.9% | – | –
C/C(=N\N(C)C)C1=C(O)c2ccccc2C1=O | 6.25% | – | 18.4 µM [rising, single point]
ONC(=Nc1ccccc1)c1ccc(Cl)cc1 | 15.9% | – | 29.1 µM [rising, single point]
CN(C)/C=C/C(=O)c1nn(-c2ccc(F)cc2)ccc1=O | 32.5% | 29.1 µM [rising, single point] | –
Cc1ccc(C)c(-n2c(-c3csc(C)c3C)n[nH]c2=S)c1 | 8.76% | – | 6.51 µM [rising, partial curve, poor fit]
O=C(OCc1nc2ccccc2[n+]([O-])c1C(=O)c1ccccc1)c1ccco1 | 1.9% | – | 4.11 µM [rising, single point]
CCC1(c2ccccc2)NC(=O)N(CC(=O)NCc2ccncc2)C1=O (configuration not stated) | 39.7% | 29.1 µM [rising, single point] | –
CC(=O)CSc1ncnc2c1oc1ccccc12 | 5.49% | – | –
Cc1ccc(N(Cc2cc3ccccc3[nH]c2=O)C(=O)c2ccco2)c(C)c1 | 9.43% | – | 2.31 µM [rising, partial curve]
CN(Cc1nccn1C)C(=O)C1CCC(=O)N(CCc2ccc(Cl)cc2)C1 (configuration not stated) | 16.7% | – | –
CCCCOc1ccc(C(=O)N/C(=C/C=C/c2ccccc2)C(=O)NCCCO)cc1 | 17% | – | 7.31 µM [rising, partial curve]
COc1cc(/C=N/n2c(C)nc3ccccc3c2=O)cc(OC)c1O | 27.6% | – | 29.1 µM [rising, single point]
Cc1nc(-c2ccc(Cl)cc2)sc1C1(C)CC(c2cccc(Cl)c2)=NO1 (configuration not stated) | 26% | – | 10.3 µM [rising, partial curve]
CN(C)C=NCCn1c(N2CCOCC2)nc2c1c(=O)n(C)c(=O)n2C | -96.1% | 23.1 µM [falling, partial curve] | 23.1 µM [falling, partial curve]
OCC[C@H]1C[C@@H](O)[C@H](O)[C@]2(CCCc3ccccc3O2)O1 | 5.28% | – | 0.651 µM [falling, single point]
CCCCNC(=O)c1onc(CSc2ccncc2)c1C(=O)NCCCC | 0.55% | – | 0.259 µM [rising, partial curve]

Structure (SMILES) | cell number change | AC50 [1] | AC50 [2]
COc1ccc(CCNC(=O)CSc2nc(N)c(C#N)c(-c3cccs3)c2C#N)cc1OC | -34.2% | 23.1 µM [falling, single point] | 0.82 µM [rising, full curve, poor fit]
CCN(CC(=O)Nc1ccc2c(c1)OCCO2)Cc1cc(=O)oc2c(C)c(C)ccc12 | -36.6% | 3.66 µM [falling, partial curve, poor fit] | –
CSc1nc2[nH]ncc2c(=O)[nH]1 | -13.2% | – | 0.13 µM [falling, full curve, poor fit]
CCn1nc(C)c(CN2CCC(C(=O)Nc3cccc(-c4cccc(Cl)c4)c3)CC2)c1C | -13.6% | – | 1.84 µM [rising, partial curve]
COc1cc(/C=C2\CCC/C(=C\c3ccc(O)c(OC)c3)C2=O)ccc1O | -38.3% | 5.17 µM [falling, partial curve] | 11.6 µM [falling, partial curve]
CCN(C(=O)CN1C(=O)NC2(CCc3ccccc32)C1=O)C1CCCCC1 (configuration not stated) | 28% | – | –
O=C(CSc1ncccc1-c1nc2ccccc2[nH]1)N1CCc2ccccc21 | -9.94% | – | 0.82 µM [rising, full curve]
N#CC(C#N)=C(Nc1ccc(F)cc1)SCc1cccc(F)c1 | -36.9% | 1.16 µM [falling, full curve] | 1.64 µM [falling, full curve]
COc1ccc(Cn2nnnc2C(c2ccc3ncccc3c2)N2CCN(C3CCCCC3)CC2)cc1 (configuration not stated) | -2.24% | 0.146 µM [falling, full curve, poor fit] | –
O=C(Nc1cccc(S(=O)(=O)NC2=NCCC2)c1)C1CCCCC1 | -4.06% | – | –
Cc1cc(Cl)ccc1OCC(=O)Nc1nc(-c2cccs2)cs1 | -1.21% | – | 6.51 µM [falling, single point]
CCN(CCO)C(=O)C12CCC(C)(C(=O)C1)C2(C)C (configuration not stated) | -8.74% | – | 0.00461 µM [falling, full curve, poor fit]
Cc1ccc2c(CN3CCCCC3CCO)cc(=O)oc2c1 (configuration not stated) | 0.901% | – | –
N#CC(=C=[N-])c1nc2ccccc2nc1-[n+]1cccc(NC(=O)c2ccccc2)c1 | -39.3% and -5.66% | 6.51 µM [falling, full curve] | 6.51 µM [falling, full curve] and 29.1 µM [falling, single point]
COc1cc(/C=C/C(=O)OCC(=O)N2CC3(C)CC2CC(C)(C)C3)ccc1O (configuration not stated) | – | – | 29.1 µM [falling, partial curve]
O=C(NCc1cccc(Cl)c1)c1cnn2c1NC(c1ccco1)CC2C(F)(F)F (configuration not stated) | – | 0.116 µM [rising, full curve, poor fit] | 0.326 µM [rising, partial curve, poor fit]
Cc1ccc(C(=O)N/C(=C\c2ccco2)C(=O)NC2CCS(=O)(=O)C2)cc1 (configuration not stated) | 15.6% | – | 0.82 µM [falling, full curve, poor fit]
CC(C(=O)NCC1CCCCC1)N1CCc2ccccc2C1 (configuration not stated) | 45.1% | 16.4 µM [rising, single point] | –
CCCc1nnc(NC(=O)Cn2c(=O)oc3ccccc32)s1 | 18.8% | – | –
